In PMC5785340:
The exact form of at least one protein or probe is not confirmed. Negatives hold for the conditions tested.

These sequences were tested against MaRAP2-4 (Mentha arvensis) (UniProt A0A1Z2X6Y3) (assay: EMSA). Conditions: DIG Gel Shift Kit 2nd Generation (Roche), manufacturer's protocol; pH and temperature not stated; recombinant protein; protein details: GST (pGEX-4T2); label: DIG.

Question: Does “AGATACCGACATAGATTACCGACATTGTACCGACATCT (double strand) [DRE2]” bind?
Answer: Result: binds

Question: Does “AGATACTGACATAGATTACTGACATTGTACTGACATCT (double strand) [DRE2(M)]” bind?
Answer: Result: no binding

Question: Does “AGACATGCATTAGATCATGCATTTGCATGCATTCT (double strand) [JARE(M)]” bind?
Answer: Result: no binding

Question: Does “AGAGCCGACAGATGCCGACTGGCCGACCT (double strand) [DRE1]” bind?
Answer: Result: binds

Question: Does “AGACATGAATTAGATCATGAATTTGCATGAATTCT (double strand) [JARE]” bind?
Answer: Result: binds

Question: Does “AGAAGCCGCCAGATAGCCGCCTGAGCCGCCCT (double strand)” bind?
Answer: Result: binds

Question: Does “AGAAGCCACCAGATAGCCACCTGAGCCACCCT (double strand) [GCC(M)]” bind?
Answer: Result: no binding

Question: Does “AGAGCCTACAGATGCCTACTGGCCTACCT (double strand) [DRE1(M)]” bind?
Answer: Result: no binding
